Data reported in patent publication US6466814B1, “Method of magnetic resonance investigation” (Amersham Health AS, priority 1998, dated 2002).

Key:
[1] = 13C MRI after injection of the hyperpolarised solution into a rat; format: in vivo; settings: polarized by microwaves 70 GHz, 2.5 T, 4.2 K; dissolved in warm (40° C.) water
[2] = Low-field pumping of 13C in the solid, 13C-NMR signal; format: physicochemical; settings: 6.56 T, 2.5 K, 10 minutes; stray field 7 mT for 1 s; repeated
[3] = 13C-signal enhancement after low-field pumping and dissolution (solution experiments); format: physicochemical; settings: 35 s after leaving the cryomagnet; versus thermal equilibrium at 40° C. and 7 T; deuterium oxide
Experimental: A sample of solid 1-^13C-2,2,2′,2′,2″,2″-hexadeuterotris(hydroxymethyl)nitromethane was subjected to a magnetic field of 6.56 T at a temperature of 2.5 K for 10 minutes. The sample was then removed from the centre of the magnet to the stray field (7 mT) for a duration 1 s and then returned to the magnet. After another 10 minutes the process was repeated one more.
(§1) A sample of solid 1-^13C-2,2,2′,2′,2″,2″-hexadeuterotris(hydroxymethyl)nitromethane (20 mg) was subjected to the above-mentioned pumping procedure (see Examples 5-7) and then in less than 1 second moved to a holding field of 0.4 T where also a sample of deuterium oxide (3 ml) at a temperature of 40° C., stirred by nitrogen bubbling, was kept. […] The sample was inserted into the spectrometer and a ^13C-spectrum was recorded. […]
as §1, with “2-^13C-2,2-bis(trideuteromethyl)-1,1,3,3-tetradeuteropropane-1,3-diol” for “1-^13C-2,2,2′,2′,2″,2″-hexadeuterotris(hydroxymethyl)nitromethane”

[4] = frozen 60:40 glycerol/water, cited from earlier work

## O=[13C]([O-])O.[Na+] [NaH^13CO3, sodium bicarbonate—^13C]
[1]
  13C MRI picture after injection into a rat, single shot (Experiment 3): enhanced intensity and contrast

## [2H]C([2H])(O)[13C]1(C([2H])([2H])O)C([2H])([2H])C1([2H])[2H] [1-^13C-1,1-bis(hydroxydideuteromethyl)-2,2,3,3-tetradeuterocyclopropane]
[2]
  13C-NMR signal of the solid sample after low-field pumping: in accordance with thermal equilibrium at 6.56 T and 2.5 K

## [2H]C([2H])(O)[13C]([N+](=O)[O-])(C([2H])([2H])O)C([2H])([2H])O [1-^13C-2,2,2′,2′,2″,2″-hexadeuterotris(hydroxymethyl)nitromethane]
[3]
  Enhancement factor of the 13C-signal: 12
[2]
  13C-NMR signal of the solid sample after low-field pumping: in accordance with thermal equilibrium at 6.56 T and 2.5 K

## NC[13C](=O)O [13C-Glycine]
[4]; 4-amino TEMPO, 5 T and 40 K
  Enhancement (dynamic nuclear polarisation): ~100

## NC[13C](=O)O [Carboxy-13C labelled glycine]
[4]; TEMPO, 5 T and 14 K
  Enhancement (dynamic nuclear polarisation): 185

## [2H]C([2H])([2H])[13C](C([2H])([2H])[2H])(C([2H])([2H])O)C([2H])([2H])O [2-^13C-2,2-bis(trideuteromethyl)-1,1,3,3-tetradeuteropropane-1,3-diol]
[3]
  Enhancement factor of the 13C-signal: 21
[2]
  13C-NMR signal of the solid sample after low-field pumping: in accordance with thermal equilibrium at 6.56 T and 2.5 K

## CC(=O)[O-].[Na+] [sodium acetate (1-^13C)]
[1]
  13C MRI picture after injection into a rat, single shot (Experiment 3): enhanced intensity and contrast

Like-named read-outs stand apart in the source and are kept apart here. Some compounds share one wording; it may come from a single statement.
